Experimental data taken from patent US10125184B2, “Apolipoprotein E polypeptides and their use” (priority 2011, dated 2018).
Not every detail of the peptide structures is certain; ends, links or a residue may be inferred. Ends that are not written are not given here.

Experiment: DMPC binding assay (turbidity OD490nm)
Conditions: for DMPC binding: reduction (percentage) of turbidity (OD490nm) of DMPC solution, plateau 10 minutes after addition of peptide
Description: FIGS. 3A-3C. Both hEP and mEP mediate plasma cholesterol clearance through hepatic lipoprotein receptors. (A) DMPC binding assay was conducted as described in the examples section. The turbidity of DMPC vesicle solution was monitored by OD490 nm. The curves were representative of two independent experiments. (B) HEK293T cells were loaded with DiI-LDL (5 μg/ml) along with apoE peptide-DMPC particles which competed with DiI-LDL for LDLR binding and LDLR-mediated endocytosis (for 30 min) n=3 for each group. (C) Each peptide (100 μg in 100 μl PBS) was retro-orbitally injected into 6-month-old apoE−/− mice (two mice each group). PBS (100 μl) was injected into two other mice as control. Before (set as 0 min time point) and 5 min, 30 min, 1 h, 2 h, and 4 h after the peptide or PBS injection, 30 μl blood samples were drawn for plasma cholesterol measurement using total Cholesterol Reagent Kit (Raichem, San Diego, Calif.).
1,2-dimyristoyl-sn-glycero-3-phosphatidylcholine (DMPC) (Avanti Polar Lipids Inc., Alabaster, Ala.) was dissolved in chloroform: methanol (3:1, v/v). It was dried thoroughly under a stream of N2. The dried lipid sample was dispersed in pre-warmed buffer (10 mM Tris-HCl, pH7.2; 150 mM NaCl; 0.5 mM EDTA) to final lipid concentration of 10 mg/ml, vortexed for 1 min, and sonicated 10 times at lowest power for 10 seconds at 24° C. The peptide solution, lipid solution and buffer were all maintained at 23.9° C. One milliliter buffer and 250 μg (25 μl lipid solution) were added in a quartz cuvette, and let equilibrate for 10 min, resulting in a turbid DMPC vesicle solution. Peptide solution (250 μg in 100 μl) was then added to turbid solution in the cuvette, the solution was mixed immediately, and the change of turbidity was monitored by OD at 490 nm as a function of time. If the peptide binds to DMPC vesicles, the large DMPC vesicles will be transformed into smaller DMPC-peptide particles, reducing the turbidity of the solution.

Row | Sequence | Binding to DMPC (in words) (DMPC vesicles, turbidity) | DMPC binding
1 | CEELRVRLASHLRKLRKRLLRDADDLQKRLAVY [hEP-2] | still bind lipids | ++ (++, reduction > 50%)
2 | CVRLASHLRKLRKRLLRDADDLQKRLAVY [hEP-10] | – | ++ (++, reduction > 50%)
3 | CEEIRARLSTHLRKMRKRLMRDADDLQKRLAVY [mEP-2] | – | ++ (++, reduction > 50%)
4 | EELRVRLASHLRKLRKRLLRDADDLQKRLAVY [hEP-2/ΔCys] | – | ++ (++, reduction > 50%)
